According to the supplement of paper PMC5949888:
Most values lie at the floor of the assay. Slopes are relative: functional sequences can read slightly below zero.

Test system: Saccharomyces cerevisiae PS128 hsf1 delta, HSF1(1-493) fusion
Assay: growth estimate (transactivation domain function in HSF1 fusion, heat-shock survival) (a.u. (slope of normalised read count over time)); higher = stronger growth at 37°C, i.e. more transactivation activity
Conditions: library: random library

Substance	growth estimate
MSGRSMWVFFLGLGVRFATS	< -0.25
RKGED	< -0.25
PPTGHSRGNSWHFR	< -0.25
CKRTGVLGAGPGYRGHSLTQ	< -0.25
LRSTI	< -0.25
QSRWSNPTPLKTPLNVFSLR	< -0.25
VRSLVSVGVGTGTRLLMEPR	< -0.25
CNPNTGGPVPSECPWLYWPT	< -0.25
PGGFAFPRLNLRSLKYHYVV	< -0.25
SGKRWTNLARGLQDGHIFRV	< -0.25
FSWIETASDK	< -0.25
FIRPDLMRRSRDIVQGGNSP	< -0.25
LLGPLLNNVTGSCVSTRHG	< -0.25
VRPWSL	< -0.25
GHVAFSLRSSRESYYSLFTG	< -0.25
TRKLPRGYVGRVSQARLPT	< -0.25
PRPSFYGTSMFKSLS	< -0.25
WQELNICARLGQKKPRSSAE	< -0.25
NRCKSRQQVGVRWRVMSFIA	< -0.25
ERFVHDLDKEIASEEQRACQ	< -0.25
RYIVDP	< -0.25
SGS	< -0.25
RGGEPSCRASLPVCMTKNPG	< -0.25
GQFRPIYEVMDAVVGSVRPS	< -0.25
SWCPYRAPLTAAGAAPCSFA	-0.246

Substance	growth estimate
GDCQLFENDNGRGDKRTGGP	< -0.25
WVGVNCRKNPAEQSE	< -0.25
EDLGFDFY	< -0.25
NWFRYRIRIMKRKCSLVQMS	< -0.25
LHSLPARCIT	< -0.25
FCRLAFFRRSSLLVCGHWHP	< -0.25
TPLPLDPRPVSSALNRQSAL	< -0.25
SDLDLADKDRIAL	< -0.25
GVESDMYSRI	< -0.25
MSKSTPGQ	-0.238
VRSCILQV	< -0.25
VMVHLSSYGARRSRLCGEAH	< -0.25
IGVRLCPLPNTRRISIGGVY	< -0.25
VLLHGSECPVP	< -0.25
AIKIDTRKTKCWVVSAL	-0.248
RFVKKRATDGVRLRQIQSSH	< -0.25
QAQVDGWVSLSLRS	< -0.25
NNE	< -0.25
LTMLVLRTSRIRCFIDDIHH	< -0.25
STIKAVRALTQRLRSVRCNS	< -0.25
TMRGIGSQLDSLLSMELGEE	< -0.25
NTQQFLIQFWE	< -0.25
SQSLHSSDGLELCVRTQKGR	< -0.25
PGA	< -0.25
LIVDRHHRLTVDDVIREPWM	< -0.25

Quoted at random: six records from the list.
Substance	growth estimate
VMVHLSSYGARRSRLCGEAH	< -0.25
GVESDMYSRI	< -0.25
MSKSTPGQ	-0.238
RFVKKRATDGVRLRQIQSSH	< -0.25
VRSCILQV	< -0.25
LHSLPARCIT	< -0.25

Given as comma-separated lines: part of the list above
Substance,growth estimate
IGVRLCPLPNTRRISIGGVY,< -0.25
VLLHGSECPVP,< -0.25
AIKIDTRKTKCWVVSAL,-0.248
RFVKKRATDGVRLRQIQSSH,< -0.25

Carrying on:

Substance	growth estimate
SLIIVQTRQVNPLTVTGGRE	< -0.25
LFRETRPLFRVIAGGLHVTD	< -0.25
TMSYSERN	< -0.25
AAVCSVNL	< -0.25
VAGSGVY	< -0.25
TDSEMGSVEDLLVFFGEGGL	3.11
RECRQLS	< -0.25
LPLCRPPQGSRLRNLAEDSK	< -0.25
WVQTGE	< -0.253
GTVHVPYHRISWDTRS	< -0.25
GLD	< -0.25
EVHLNRLHRSQRHYSPEP	< -0.25
DRMITLTFA	< -0.25
QIS	< -0.25
HSLHAWGAGHVHMGFDTILR	< -0.25
AADARLVVR	< -0.25
LCDSFIHRSWVAVT	< -0.25
TGFPVLIM	< -0.25
GSGF	-0.243
VPRA	< -0.25
VYTTRLCLSYRVL	< -0.25
SVTVGGEGEPCESREHRPGP	< -0.25
ITNKPRFSYRAELRLPFVPC	< -0.25
LRKSILVIGVAHFYPVWGIA	< -0.25
FCNRPGVSGSWGLVTNVELA	< -0.25

Substance	growth estimate
TGVD	< -0.25
GLTPCILCRDLHRVCSLGI	-0.249
GGVFVSVAPSRHDRVAARRS	< -0.25
QHAKLYRRQGVKTVKGRMAG	< -0.25
PAEERSPVNSSDNGERRLAR	< -0.25
LVAMCLRGWCSPRNQ	< -0.25
ASRSLFLRSVRRDLLLTRMS	-0.197
IAIRFDVDRL	< -0.25
LSCEVDAQSLICKMVQLRKL	< -0.25
ILSV	< -0.25
GPAWAHVLIATARHSSRIQP	< -0.25
PYKPLHGTRRSRPERPAPSA	< -0.25
PCYPYNYATYMCPIGVTCSC	< -0.25
SRNAFFPGERERGCLKTARG	< -0.25
VPAMVLAPTLSQLSLTGSCG	< -0.25
VRPPQVEGARGRSTVKGEE	< -0.25
CRGPGLPLHRQTTPTRGSSE	< -0.25
LRLGLVGLRSEIEGITSRRA	< -0.25
SCQYS	< -0.25
PLSRSSNNAIG	-0.246
QTGIAH	< -0.25
KRWPFKQLVFSLEHAL	< -0.25
VRDGTDGAGGLATTNTNSRR	< -0.25
SVRALGLRSRLHRQPPDEEV	< -0.25
PASNDPDGRRVGHMMERLNA	< -0.25

Substance	growth estimate
IVSINGATGAGGSARTAGSS	< -0.25
ALYRSG	< -0.25
GGDRIYGNRGSPPIHNRLMH	< -0.25
GVLNRRSSWSRLSM	< -0.25
AQMLSEGWC	-0.229
EDT	-0.243
ANLHARVNATVRRGRTGHHL	< -0.25
FAYGLRGRVRGVACKSHATN	< -0.25
QLPYWGCYISCGHAL	< -0.25
VEEARSLGRVAVGRVRLQPA	< -0.25
CQTRGTGKVQEC	< -0.25
TDSLP	< -0.25
HAWRSRD	< -0.25
GCC	< -0.25
RSVCGQGTTTSSGATGDIKS	< -0.25
SQKQPPLSPAPSGSARI	< -0.25
CVC	< -0.25
ERASNRFSPVCGHNEHEVAQ	< -0.25
NLLGTGIGKERGVPACGFMD	< -0.25
HRRTFAGKCKLCRAGKE	< -0.25
LTC	-0.243
MCIMRT	< -0.25
HQWYYAISERIS	< -0.25
FPPRDGLRKRLYQALSGFGR	< -0.25
RASFYQTVCTRIG	< -0.25

2 entries from above in another layout.
Substance,growth estimate
LTC,-0.243
HQWYYAISERIS,< -0.25

(continued)

Substance	growth estimate
PAIRGVQRILGTDSS	< -0.25
RVPRSPGTDTFSSSRTSCQL	< -0.25
RLGRGCAIESRLAVRTILGM	< -0.25
RTPGDGSCQSKQNPPEFGAH	< -0.25
RRTFGQARGNRVLGMGL	< -0.25
SIQSGGGGGIGRNSTSGSGT	< -0.25
GVPANGTTK	< -0.25
HVETEQCCSYGVPNNRTSVS	< -0.25
RDRNGFRVRV	< -0.25
NVGLFGSRRRKYSEGI	< -0.25
AEYFVRIGRSYEESVP	< -0.25
NRRSPSTGRASTRSRSRSTP	< -0.25
HPRFQT	< -0.25
TSNRPFHVPGVQQRRGDAFQ	< -0.25
GLILWIRVLLRDPLCVRSRG	-0.229
ISAITGEEVEARCDRSLLYR	< -0.25
DQWQKADFELRPAH	-0.0647
GFG	< -0.25
IHA	< -0.25
GRGPGAGNCYARMRESRVPD	< -0.25
WGPVGPPARDAFCFSGVQRP	< -0.25
SSGRAC	< -0.25
FAFLKTG	< -0.25
LHWATAVRTGETVNCGYGTE	< -0.25
NIEYVARASRA	< -0.25

Substance	growth estimate
HPTN	< -0.25
DIGKKLILCIHAALAIRGLG	< -0.25
QPIVPRTNYGLAVS	-0.243
FSPDHCSCRLRSTKFYLGPK	< -0.25
ATK	< -0.25
ARLLSTLLSAV	< -0.25
VTI	< -0.25
WKAFTFSIG	< -0.25
SESIAEMLARLLRDRDSRFR	< -0.25
YGASYMSVSPNGVWFGCGKT	< -0.25
FLQGKGVGPRPVSSLCFAIT	< -0.25
PGEVPFYYIHGVREIGPYHH	< -0.25
RWIGTILSVCSYRPALGTMH	< -0.25
LERVT	< -0.25
WYVRGTR	< -0.25
NILA	< -0.25
SGFRVNRRILTCSSYTVGSG	< -0.25
GSEICHQ	< -0.25
HFQD	< -0.25
AVRHLPARRGRTASVIGPCE	< -0.25
CDGRTS	< -0.25
WSESPAAKARNRVRGLKKGA	< -0.25
GQG	< -0.25
KLRNLSVSQSQRHRGAIWGG	< -0.25
QLTHLGETTSA	< -0.25

Substance	growth estimate
AVAAPLVSELQIRLFPGGFL	< -0.25
HGRAIRLFVHIWTLGVGSKC	< -0.25
ITM	< -0.25
GSMPHVLRPHCGPVFIAPNS	< -0.25
CHV	< -0.25
TKCTGVTNKTATMSLRMMAT	< -0.25
QYFTGGRWQC	< -0.25
INVSISKIYPCADSPGYFCS	< -0.25
HPRSLDA	< -0.25
RSDQALRWEPRKS	< -0.25
RRWGMIESGLLSAMYDLSAP	< -0.25
HAIRPACGPGSQIVSLMGVE	< -0.25
RFTSTAGHNLIRVERTVTAA	< -0.25
TKDILSPRPLLYLIKLILRC	< -0.25
VPPL	< -0.25
VTAGVGSQT	< -0.25
LGLCCEGGEQRPEPCGPLNA	< -0.25
SPAAGKPEARVCSGINIRAS	< -0.25
LMGGVNRSTV	< -0.25
LVEGYFTRFAWAIYLCIRLR	< -0.25
SDRTARASSVTHPPNILLCF	< -0.25
SCKACLADDWPFVLTLSLRR	< -0.25
DLLLLCAEGTPELLTRRQPQ	< -0.25
GGFSGLYDQF	< -0.25
